The source of these data is publication PMC9174887.

The experiment deals with T1, HA-tagged VHH_(mASC) (JT-01-A09), expressed in HEK 293T cells (alpaca).
T1 sequence (VHH): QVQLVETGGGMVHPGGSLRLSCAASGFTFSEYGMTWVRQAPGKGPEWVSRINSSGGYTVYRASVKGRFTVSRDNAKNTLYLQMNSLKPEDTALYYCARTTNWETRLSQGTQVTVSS
In words: co-IP; LUMIER assay: lysates of co-transfected HEK 293T cells; HA-tagged VHH captured on plates coated with anti-HA.11, 4°C, 3 h; 50 mM Hepes pH 7.9, 150 mM NaCl, 2 mM EDTA, 0.5% Triton X-100, 5% glycerol; co-precipitated Renilla luciferase activity normalised to input.

No constants are given. Whether binding was seen depends on the method and setting. In cells and extracts the contact can be indirect. Tags and fused reporters may be left off the sequences shown.

As to “pyrin domain of human ASC fused to Renilla luciferase (domain or fragment)”, the binding result is reported as “no binding”.

“pyrin domain of mouse NLRP3 fused to Renilla luciferase (domain or fragment)”: the binding entry is given as “no binding”.
